Data on 42 sequences can be found in paper PMC7819943, “Rice protein-binding microarrays: a tool to detect cis-acting elements near promoter regions in rice”.

The list shows a part of the results.

This assay addresses T1, OsSMF1 (Oryza sativa, UniProt Q6ZLB0 1-436).
T1 sequence: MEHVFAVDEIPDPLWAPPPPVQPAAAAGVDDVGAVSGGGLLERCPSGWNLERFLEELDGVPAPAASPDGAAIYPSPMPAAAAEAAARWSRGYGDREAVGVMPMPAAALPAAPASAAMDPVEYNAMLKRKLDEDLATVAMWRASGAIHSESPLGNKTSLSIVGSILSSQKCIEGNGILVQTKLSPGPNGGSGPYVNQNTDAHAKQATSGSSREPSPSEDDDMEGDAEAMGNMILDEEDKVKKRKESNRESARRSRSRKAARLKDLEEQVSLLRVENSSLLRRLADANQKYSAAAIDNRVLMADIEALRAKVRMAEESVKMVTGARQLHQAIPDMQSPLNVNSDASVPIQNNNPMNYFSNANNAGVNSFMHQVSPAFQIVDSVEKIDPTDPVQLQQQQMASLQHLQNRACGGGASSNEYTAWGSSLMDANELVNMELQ
The experiment in a line: protein-binding microarray (RPBM); PBS, 2% BSA, 51.3 ng/ul salmon testes DNA, 50 uM zinc acetate, 200 nM TF, 25 C, 1 h; high values mean tight binding. The note with it: protein: recombinant; tags: N-terminal polyhistidine and DsRed monomer fusion (pET32a); chain copies: 2; label: CyDye5-dUTP incorporated in the synthesized complementary strand; 3' TTTTT single-stranded linker to array surface; dsDNA, one strand shown. Put shortly: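 The binding signal for each feature is its fluorescence intensity in arbitrary units. An Axon 4000B scanner was used to read a custom Agilent array that had been made double-stranded with Cy5-dUTP primer extension, blocked with 2% BSA, incubated at 25 °C for 1 h with 200 nM protein in PBS, 2% BSA, salmon testes DNA and 50 µM zinc acetate, and washed. The protein was an N-terminal polyhistidine–DsRed transcription factor fusion from E. coli BL21-CodonPlus, purified on Ni–NTA.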
Regarding “GGTGGAGCTTTCTCACAAAATGAACTAGAAAGGTGAAACTCGGAGTCACCTAGTGCAG”, the binding signal is 34700 fluorescence intensity (a.u.).
Then “CGCCGCGCGCTGCCCGCACGCACCCACCCACGTCGCGTCACGGAGTCACCTAGTGCAG”, with 6510 fluorescence intensity (a.u.).
Then “CAGCAATGCTATGTTTAATTTAACCACGCACAGAGCAAGGCGGAGTCACCTAGTGCAG”, with 27600 fluorescence intensity (a.u.); and “AACAAAACAATGTTTATATATGTCTTCATTTGAACATATTCGGAGTCACCTAGTGCAG”, with 25400 fluorescence intensity (a.u.); and “TGGCTAAGCAATAGCTATAGTAGTAGCTCGAATATACCCACGGAGTCACCTAGTGCAG”, with 25700 fluorescence intensity (a.u.).
Then “CACGTTTCGTAAAGTACACGTCACCATTGATTAGCGAATACGGAGTCACCTAGTGCAG”, with 6630 fluorescence intensity (a.u.); and “CTGGGAGGCCTCACTTCCAAATAACTTCTTGTCCAACGAACGGAGTCACCTAGTGCAG”, with 20200 fluorescence intensity (a.u.).
On to “AGACGCTGACAGGCCGGCTCCCACCTCCCAAGTCTCCAGTCGGAGTCACCTAGTGCAG”, for which the binding signal is 3920 fluorescence intensity (a.u.).
Then “TAAATTGTTTTAGTCTGAGTGACGACTGCACCGTTACCAGCGGAGTCACCTAGTGCAG”, with 4010 fluorescence intensity (a.u.); and “AGCACTACCCAGCCACACAACCATAAGTCGTCTCTCAGTGCGGAGTCACCTAGTGCAG”, with 3840 fluorescence intensity (a.u.).
Then “CGCCTTCTCCGCCTTCGTCAGCAGCCGCAGCTTCTCCACGCGGAGTCACCTAGTGCAG”, with 6050 fluorescence intensity (a.u.); and “GACAAAGTCACACTGTCACACGTATTACCGGTTACAAACTCGGAGTCACCTAGTGCAG”, with 3940 fluorescence intensity (a.u.); and “AGGAAGTACCTCCGTCCCAAAATGTTACAATATTTAGTTACGGAGTCACCTAGTGCAG”, with 27500 fluorescence intensity (a.u.).
To “CTGTGGCGTGCATCCGCAGAAATTCTCCACCAGCTCAGCCCGGAGTCACCTAGTGCAG” belongs 4280 fluorescence intensity (a.u.); to “CTTCCCTCTCCTCATCCGCGTAAGGCCATCATCCCCACGCCGGAGTCACCTAGTGCAG”, 4070 fluorescence intensity (a.u.); to “AGGGGATTGACAATTCGACATTGGCCAACTCTTTATCTGTCGGAGTCACCTAGTGCAG”, 3230 fluorescence intensity (a.u.).
Regarding “CGCCTCCTCTCCTCCTCTCCCGCCGCCTCGTCACGCCGACCGGAGTCACCTAGTGCAG”, the binding signal is 6430 fluorescence intensity (a.u.).
“TTTTGCTTAGCTGTTCTGTAATTGTCGATTTGAATTGGATCGGAGTCACCTAGTGCAG”: the binding signal is 3500 fluorescence intensity (a.u.).
Then “CGAAGGAGTGGTTGGTGTTGATCTCTCTCTCCTTGCTTTGCGGAGTCACCTAGTGCAG”, with 3330 fluorescence intensity (a.u.); and “GACTTAACTTTAGTCCCTGTATTTAGACACTAATTTAGAGCGGAGTCACCTAGTGCAG”, with 65500 fluorescence intensity (a.u.).
Then “ACGCGCGGTGGCTAGACGTGTGTCTCGTGGACACAGCTCCCGGAGTCACCTAGTGCAG”, with 3680 fluorescence intensity (a.u.); and “TCCTACCACCACCTCCCGTACCACTCACTGACACGCGGGCCGGAGTCACCTAGTGCAG”, with 5660 fluorescence intensity (a.u.); and “CCTTATCCTCATTCCTCCTCATCCAGTCATCCCCAACCTCCGGAGTCACCTAGTGCAG”, with 4680 fluorescence intensity (a.u.).
With “AACGCGTCTCAAGTCGATCTCAAACCCCACACACACAGCACGGAGTCACCTAGTGCAG”, the binding signal was 29700 fluorescence intensity (a.u.).
For “GTTATTGTGGCACAGTGATGATATAATGTTGATTGGAGTGCGGAGTCACCTAGTGCAG”, the binding signal is 3400 fluorescence intensity (a.u.).
In the case of “AATGAAGAAGGGCTGACACGTACCTATATTCCGGGAACGACGGAGTCACCTAGTGCAG”, the binding signal was 6180 fluorescence intensity (a.u.).
Then “TAAGATCACCTATAGATATATCATTCCAAGTCATAGATTGCGGAGTCACCTAGTGCAG”, with 6060 fluorescence intensity (a.u.); and “CATTATACTGTTCATAAACATGAATATCACAACCTGTTCTCGGAGTCACCTAGTGCAG”, with 21100 fluorescence intensity (a.u.).
To “ATTCCCCTCCAACAAATTGGGTCCCACGTGTCAATGGCTCCGGAGTCACCTAGTGCAG” belongs 10200 fluorescence intensity (a.u.); to “TGCCGGGAAGCCGACCGGCTGACAACGCCGTGCAGCCACTCGGAGTCACCTAGTGCAG”, 3530 fluorescence intensity (a.u.).
Then “GCCTCGTGTAACAGATGACAGAACATCGCGACCGTCCGTGCGGAGTCACCTAGTGCAG”, with 3670 fluorescence intensity (a.u.).
As for “AACTACGTACGCACGCACATTTGAGTAAATTTGTACTTCCCGGAGTCACCTAGTGCAG”, the binding signal is 22000 fluorescence intensity (a.u.).
Take “GGCTGCCAACTCAGCCGGCCCACGCTCTCCGACACGTGGGCGGAGTCACCTAGTGCAG”: the binding signal is 12700 fluorescence intensity (a.u.).
Then “ATCTTTTGAGCCTAATTAGTCTATGATTAGTCATAAGTGTCGGAGTCACCTAGTGCAG”, with 3660 fluorescence intensity (a.u.); and “ATTAGCCATAAGTGCTACAATAACCCACGTGTGTTAATGACGGAGTCACCTAGTGCAG”, with 5050 fluorescence intensity (a.u.).
To “AATGGTGGGCCCACGTGGGCCCCACATGTCATTCTCACCCCGGAGTCACCTAGTGCAG” belongs 4980 fluorescence intensity (a.u.); to “GGACGGGCTAACACGTCGTTATCCAGTCGAGCTAACAGGTCGGAGTCACCTAGTGCAG”, 24100 fluorescence intensity (a.u.); to “CTGAACTGGTTCGTTTCTAATTGACTGTGTTTGTTTGTTTCGGAGTCACCTAGTGCAG”, 4590 fluorescence intensity (a.u.).
To “ACACGACACAACCTACACGTGCCAGGCCGTGCCAGTCCACCGGAGTCACCTAGTGCAG” belongs 3580 fluorescence intensity (a.u.).
Regarding “TGGGCTAAGCGGTGGTGTATGGCGTCAGCTCACTTCAAGCCGGAGTCACCTAGTGCAG”, the binding signal was 6480 fluorescence intensity (a.u.).
Turning to “GAAGGAATTGGATTGAATCAGAAAGGGGATCGATTCGATGCGGAGTCACCTAGTGCAG”, the binding signal was 45200 fluorescence intensity (a.u.).
Consider “TTACAGGTGTTGTCATTTTATGTGACCGGTCAGACCGGGCCGGAGTCACCTAGTGCAG”, for which the binding signal is 4510 fluorescence intensity (a.u.).
